Test results: patent US20230069835A1 (ACADEMIA SINICA, published 2023)
These are yes or no findings as the source states them, for the method shown. In cells and extracts the contact can be indirect. Some entries that bind do so weakly or less than the wild type.

Tests used:
[1] = target: T1, microsomal triglyceride transfer protein (MTTP), endogenous, in mouse intestinal epithelial cell lysates (mouse) (UniProt O08601); assay: co-immunoprecipitation from IEC lysates with MTTP antibody
T1 sequence (looked up): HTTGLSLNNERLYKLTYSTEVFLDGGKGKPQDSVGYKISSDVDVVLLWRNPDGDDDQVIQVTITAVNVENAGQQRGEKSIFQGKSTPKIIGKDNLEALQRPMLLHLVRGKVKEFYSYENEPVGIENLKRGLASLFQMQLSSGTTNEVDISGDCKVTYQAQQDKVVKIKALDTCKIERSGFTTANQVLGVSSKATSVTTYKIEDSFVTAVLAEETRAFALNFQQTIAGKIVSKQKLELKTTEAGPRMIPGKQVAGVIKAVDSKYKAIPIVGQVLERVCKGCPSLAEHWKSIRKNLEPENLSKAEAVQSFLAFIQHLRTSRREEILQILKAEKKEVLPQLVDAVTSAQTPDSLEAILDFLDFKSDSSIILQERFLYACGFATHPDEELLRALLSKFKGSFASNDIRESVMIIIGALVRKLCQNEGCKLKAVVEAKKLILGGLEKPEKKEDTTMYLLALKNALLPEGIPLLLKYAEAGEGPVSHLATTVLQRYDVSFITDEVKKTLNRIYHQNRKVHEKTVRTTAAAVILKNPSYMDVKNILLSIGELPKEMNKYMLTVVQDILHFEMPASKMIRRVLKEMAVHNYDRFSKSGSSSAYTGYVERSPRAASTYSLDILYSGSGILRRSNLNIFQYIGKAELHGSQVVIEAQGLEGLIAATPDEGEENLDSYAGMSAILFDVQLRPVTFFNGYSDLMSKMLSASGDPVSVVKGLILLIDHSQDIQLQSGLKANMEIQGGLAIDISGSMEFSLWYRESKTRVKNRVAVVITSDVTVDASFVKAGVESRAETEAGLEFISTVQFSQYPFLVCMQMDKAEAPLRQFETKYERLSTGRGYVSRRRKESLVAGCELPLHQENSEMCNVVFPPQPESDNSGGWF

[2] = target: T1, microsomal triglyceride transfer protein (MTTP), endogenous, in mouse intestinal epithelial cell lysates (mouse); assay: co-immunoprecipitation from total intestinal cell lysates, immunoblot (FIG. 2A)
[3] = target: T1, microsomal triglyceride transfer protein (MTTP), endogenous, in mouse intestinal epithelial cell lysates (mouse); assay: co-immunoprecipitation from IEC lysates with PRAP1- or MTTP-specific antibody, immunoblot

Measured: binding

B1: endogenous wild-type PRAP1 in intestinal epithelial cells of control (PRAP1+/+) mice (protein)
chain: APAHQVPVKTKGKHVFPEQETEKVWDTRALEPLEKDNQLGPLLPEPKQKPAAAEEKRPDAMTWVETEDILSHLRSPLQGPELDLDSIDHPMSDDVQDEEVPQSRPILYRQVLQGPEEDLDHLAHSMEDS
binds: all assays above
